What all share (assay): log2 fold change, soluble protein after heating vs DMSO (PISA); higher = thermal stabilisation; K562 lysate, 10 uM; active = over 0.2 and 3.5 SD of the protein, either way, in both replicates (recomputed)
Compound in assay [1]: Cc1sc2c(c1C)C(c1ccc(Cl)cc1)=N[C@@H](CC(=O)OC(C)(C)C)c1nnc(C)n1-2
The procedure, abridged: (§1)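 A 30 min treatment with 10 μM compound was applied to crude K562 extract at 1 mg/mL protein in PBS pH 7.4 with 1 mM MgCl2. Heating for 3 min spanned 48°C-58°C, after which aliquots were pooled, adjusted to 0.5% NP-40 at 4°C and spun at 21,000xg for 90 min. TMTpro 16plex LC-MS/MS of the supernatant, with channel sums equalised, gave values recorded as log-two fold change in thermal stability against solvent controls, from duplicates.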

Protein sequences, listed by entry. Tags and fused reporters are not part of them. Lines headed by an entry give the natural chain unless they say otherwise; changes in a name come on top.
UniProt A8MTT3: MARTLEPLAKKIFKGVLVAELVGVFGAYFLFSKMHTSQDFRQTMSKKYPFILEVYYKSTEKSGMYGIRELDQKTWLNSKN
UniProt Q9Y592: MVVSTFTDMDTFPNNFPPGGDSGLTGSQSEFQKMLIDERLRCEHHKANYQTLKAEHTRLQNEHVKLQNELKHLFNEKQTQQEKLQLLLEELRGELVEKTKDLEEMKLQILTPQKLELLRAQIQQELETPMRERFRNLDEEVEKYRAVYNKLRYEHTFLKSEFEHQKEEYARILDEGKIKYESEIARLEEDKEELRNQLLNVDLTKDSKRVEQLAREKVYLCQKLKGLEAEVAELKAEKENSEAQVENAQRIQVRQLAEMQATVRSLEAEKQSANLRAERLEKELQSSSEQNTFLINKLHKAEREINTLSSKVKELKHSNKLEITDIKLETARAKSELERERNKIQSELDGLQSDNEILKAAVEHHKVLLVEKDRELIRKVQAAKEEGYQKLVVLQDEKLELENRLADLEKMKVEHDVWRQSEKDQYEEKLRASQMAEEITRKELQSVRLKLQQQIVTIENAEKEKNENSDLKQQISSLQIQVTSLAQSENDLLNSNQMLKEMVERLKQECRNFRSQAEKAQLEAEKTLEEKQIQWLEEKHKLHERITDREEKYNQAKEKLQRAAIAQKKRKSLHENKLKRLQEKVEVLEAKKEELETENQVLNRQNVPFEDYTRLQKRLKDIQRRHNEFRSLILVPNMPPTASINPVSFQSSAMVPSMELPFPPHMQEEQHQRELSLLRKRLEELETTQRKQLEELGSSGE
UniProt Q9NSP4: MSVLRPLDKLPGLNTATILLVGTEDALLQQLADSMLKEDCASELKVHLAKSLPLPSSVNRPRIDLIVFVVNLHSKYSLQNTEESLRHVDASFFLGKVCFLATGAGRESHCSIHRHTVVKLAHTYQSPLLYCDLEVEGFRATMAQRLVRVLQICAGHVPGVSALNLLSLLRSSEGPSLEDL
UniProt Q9NRR8: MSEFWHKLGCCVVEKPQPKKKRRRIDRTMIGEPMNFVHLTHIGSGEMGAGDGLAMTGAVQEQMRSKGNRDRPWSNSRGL
UniProt O14613: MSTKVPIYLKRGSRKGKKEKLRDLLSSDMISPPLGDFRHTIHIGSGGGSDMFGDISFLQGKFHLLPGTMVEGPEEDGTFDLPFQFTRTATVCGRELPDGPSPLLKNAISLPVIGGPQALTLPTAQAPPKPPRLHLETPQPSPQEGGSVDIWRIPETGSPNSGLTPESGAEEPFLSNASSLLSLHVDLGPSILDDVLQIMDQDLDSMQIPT
UniProt P30304: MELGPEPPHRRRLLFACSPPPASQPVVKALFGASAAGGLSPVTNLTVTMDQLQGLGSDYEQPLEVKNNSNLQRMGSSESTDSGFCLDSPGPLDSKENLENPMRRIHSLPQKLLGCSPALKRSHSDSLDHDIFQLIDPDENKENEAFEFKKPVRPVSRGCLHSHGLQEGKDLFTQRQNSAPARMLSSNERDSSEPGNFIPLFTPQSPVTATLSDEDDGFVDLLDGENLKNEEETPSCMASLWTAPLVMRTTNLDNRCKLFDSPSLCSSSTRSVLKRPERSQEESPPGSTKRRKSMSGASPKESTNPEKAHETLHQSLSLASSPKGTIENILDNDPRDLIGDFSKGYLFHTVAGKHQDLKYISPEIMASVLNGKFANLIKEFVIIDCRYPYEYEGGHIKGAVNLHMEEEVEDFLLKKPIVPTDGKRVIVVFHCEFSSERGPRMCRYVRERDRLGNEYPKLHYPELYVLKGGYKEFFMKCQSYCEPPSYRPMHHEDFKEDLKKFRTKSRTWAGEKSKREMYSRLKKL
UniProt Q96MT8: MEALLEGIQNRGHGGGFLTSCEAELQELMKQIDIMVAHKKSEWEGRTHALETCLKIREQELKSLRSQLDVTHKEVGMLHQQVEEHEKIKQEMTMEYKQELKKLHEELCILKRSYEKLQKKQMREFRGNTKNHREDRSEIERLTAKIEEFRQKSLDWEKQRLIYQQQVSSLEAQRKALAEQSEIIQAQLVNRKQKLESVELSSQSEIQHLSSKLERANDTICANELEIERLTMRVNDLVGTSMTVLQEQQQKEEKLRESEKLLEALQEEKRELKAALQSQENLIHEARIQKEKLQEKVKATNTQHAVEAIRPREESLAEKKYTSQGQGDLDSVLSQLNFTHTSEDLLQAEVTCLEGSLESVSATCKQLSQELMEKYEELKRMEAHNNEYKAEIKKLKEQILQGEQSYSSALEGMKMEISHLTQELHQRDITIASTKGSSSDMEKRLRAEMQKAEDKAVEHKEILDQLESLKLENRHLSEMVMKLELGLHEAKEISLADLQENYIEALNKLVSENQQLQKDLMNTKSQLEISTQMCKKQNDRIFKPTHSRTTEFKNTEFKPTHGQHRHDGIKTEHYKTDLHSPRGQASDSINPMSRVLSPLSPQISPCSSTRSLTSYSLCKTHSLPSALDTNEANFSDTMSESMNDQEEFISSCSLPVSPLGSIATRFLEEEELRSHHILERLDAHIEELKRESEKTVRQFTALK
UniProt Q9BU64: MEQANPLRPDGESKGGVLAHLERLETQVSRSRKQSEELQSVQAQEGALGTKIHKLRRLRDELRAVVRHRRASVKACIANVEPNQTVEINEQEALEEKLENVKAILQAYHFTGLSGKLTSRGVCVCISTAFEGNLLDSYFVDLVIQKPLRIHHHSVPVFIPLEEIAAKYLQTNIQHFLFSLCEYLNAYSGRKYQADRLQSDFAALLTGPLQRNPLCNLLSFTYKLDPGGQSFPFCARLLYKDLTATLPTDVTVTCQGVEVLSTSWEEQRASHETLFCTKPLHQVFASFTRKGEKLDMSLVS
UniProt Q5SZL2: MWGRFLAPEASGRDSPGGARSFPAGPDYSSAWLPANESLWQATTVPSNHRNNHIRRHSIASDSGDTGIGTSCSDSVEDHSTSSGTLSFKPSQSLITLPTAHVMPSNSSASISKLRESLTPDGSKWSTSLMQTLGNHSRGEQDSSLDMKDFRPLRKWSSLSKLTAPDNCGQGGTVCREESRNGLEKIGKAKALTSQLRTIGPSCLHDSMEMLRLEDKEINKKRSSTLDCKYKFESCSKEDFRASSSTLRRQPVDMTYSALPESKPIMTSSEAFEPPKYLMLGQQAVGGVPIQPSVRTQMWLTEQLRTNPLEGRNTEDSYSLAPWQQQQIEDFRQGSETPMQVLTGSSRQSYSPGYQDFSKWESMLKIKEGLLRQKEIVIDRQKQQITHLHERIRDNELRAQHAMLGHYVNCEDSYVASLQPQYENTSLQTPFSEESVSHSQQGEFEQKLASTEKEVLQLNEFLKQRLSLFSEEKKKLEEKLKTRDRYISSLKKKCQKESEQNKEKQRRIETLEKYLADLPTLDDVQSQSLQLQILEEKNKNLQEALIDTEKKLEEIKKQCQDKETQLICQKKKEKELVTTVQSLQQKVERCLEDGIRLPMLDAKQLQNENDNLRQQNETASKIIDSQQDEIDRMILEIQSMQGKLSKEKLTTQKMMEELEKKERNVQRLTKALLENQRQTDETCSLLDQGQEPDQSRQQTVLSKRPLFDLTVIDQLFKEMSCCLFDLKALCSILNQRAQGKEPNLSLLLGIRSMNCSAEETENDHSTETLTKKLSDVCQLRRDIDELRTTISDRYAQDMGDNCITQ
UniProt Q5SW79: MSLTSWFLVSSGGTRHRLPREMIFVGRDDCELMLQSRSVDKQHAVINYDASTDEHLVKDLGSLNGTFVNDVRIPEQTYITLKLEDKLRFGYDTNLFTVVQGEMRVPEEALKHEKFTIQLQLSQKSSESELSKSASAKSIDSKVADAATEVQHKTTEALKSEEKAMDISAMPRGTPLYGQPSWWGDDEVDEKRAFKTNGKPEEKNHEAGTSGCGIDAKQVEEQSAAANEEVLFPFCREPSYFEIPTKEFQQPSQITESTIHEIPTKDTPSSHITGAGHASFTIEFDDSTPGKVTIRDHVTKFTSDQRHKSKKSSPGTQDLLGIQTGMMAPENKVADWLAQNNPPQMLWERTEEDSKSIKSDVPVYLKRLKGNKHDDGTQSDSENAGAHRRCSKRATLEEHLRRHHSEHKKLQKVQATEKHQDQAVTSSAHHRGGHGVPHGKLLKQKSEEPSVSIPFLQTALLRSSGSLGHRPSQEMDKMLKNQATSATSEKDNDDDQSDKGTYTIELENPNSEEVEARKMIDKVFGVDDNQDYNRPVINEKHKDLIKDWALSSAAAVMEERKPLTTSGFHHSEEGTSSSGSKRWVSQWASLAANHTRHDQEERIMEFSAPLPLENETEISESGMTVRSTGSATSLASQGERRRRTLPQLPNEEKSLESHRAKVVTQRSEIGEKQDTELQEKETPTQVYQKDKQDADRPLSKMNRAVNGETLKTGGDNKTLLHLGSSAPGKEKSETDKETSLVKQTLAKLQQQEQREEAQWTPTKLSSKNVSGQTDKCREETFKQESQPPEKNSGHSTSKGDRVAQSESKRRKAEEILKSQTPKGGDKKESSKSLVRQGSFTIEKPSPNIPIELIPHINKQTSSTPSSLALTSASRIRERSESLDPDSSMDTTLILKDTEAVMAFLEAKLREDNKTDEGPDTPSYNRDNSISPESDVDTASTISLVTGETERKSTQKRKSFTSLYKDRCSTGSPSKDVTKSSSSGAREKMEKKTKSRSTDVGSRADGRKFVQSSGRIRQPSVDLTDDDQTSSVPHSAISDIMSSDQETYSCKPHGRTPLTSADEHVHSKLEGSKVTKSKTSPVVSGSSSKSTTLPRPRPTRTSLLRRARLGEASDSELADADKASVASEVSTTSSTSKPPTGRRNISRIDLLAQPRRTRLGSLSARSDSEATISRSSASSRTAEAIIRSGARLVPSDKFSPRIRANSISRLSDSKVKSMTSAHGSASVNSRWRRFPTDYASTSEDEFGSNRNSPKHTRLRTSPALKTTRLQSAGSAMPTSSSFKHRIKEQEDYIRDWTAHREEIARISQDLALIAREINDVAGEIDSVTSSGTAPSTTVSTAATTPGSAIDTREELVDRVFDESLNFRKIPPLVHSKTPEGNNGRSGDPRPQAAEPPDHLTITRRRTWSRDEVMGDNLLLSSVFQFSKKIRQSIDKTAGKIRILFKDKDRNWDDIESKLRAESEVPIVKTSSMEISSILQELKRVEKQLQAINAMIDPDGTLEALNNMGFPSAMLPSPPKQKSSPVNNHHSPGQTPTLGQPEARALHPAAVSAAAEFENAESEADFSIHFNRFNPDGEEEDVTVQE
UniProt Q16667, whole entry, looked up: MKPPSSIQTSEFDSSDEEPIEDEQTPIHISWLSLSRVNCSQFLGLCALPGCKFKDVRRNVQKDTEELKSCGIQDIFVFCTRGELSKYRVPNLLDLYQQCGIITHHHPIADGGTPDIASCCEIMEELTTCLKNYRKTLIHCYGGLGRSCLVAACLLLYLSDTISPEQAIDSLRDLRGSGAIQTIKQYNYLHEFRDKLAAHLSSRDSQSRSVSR
UniProt O76039: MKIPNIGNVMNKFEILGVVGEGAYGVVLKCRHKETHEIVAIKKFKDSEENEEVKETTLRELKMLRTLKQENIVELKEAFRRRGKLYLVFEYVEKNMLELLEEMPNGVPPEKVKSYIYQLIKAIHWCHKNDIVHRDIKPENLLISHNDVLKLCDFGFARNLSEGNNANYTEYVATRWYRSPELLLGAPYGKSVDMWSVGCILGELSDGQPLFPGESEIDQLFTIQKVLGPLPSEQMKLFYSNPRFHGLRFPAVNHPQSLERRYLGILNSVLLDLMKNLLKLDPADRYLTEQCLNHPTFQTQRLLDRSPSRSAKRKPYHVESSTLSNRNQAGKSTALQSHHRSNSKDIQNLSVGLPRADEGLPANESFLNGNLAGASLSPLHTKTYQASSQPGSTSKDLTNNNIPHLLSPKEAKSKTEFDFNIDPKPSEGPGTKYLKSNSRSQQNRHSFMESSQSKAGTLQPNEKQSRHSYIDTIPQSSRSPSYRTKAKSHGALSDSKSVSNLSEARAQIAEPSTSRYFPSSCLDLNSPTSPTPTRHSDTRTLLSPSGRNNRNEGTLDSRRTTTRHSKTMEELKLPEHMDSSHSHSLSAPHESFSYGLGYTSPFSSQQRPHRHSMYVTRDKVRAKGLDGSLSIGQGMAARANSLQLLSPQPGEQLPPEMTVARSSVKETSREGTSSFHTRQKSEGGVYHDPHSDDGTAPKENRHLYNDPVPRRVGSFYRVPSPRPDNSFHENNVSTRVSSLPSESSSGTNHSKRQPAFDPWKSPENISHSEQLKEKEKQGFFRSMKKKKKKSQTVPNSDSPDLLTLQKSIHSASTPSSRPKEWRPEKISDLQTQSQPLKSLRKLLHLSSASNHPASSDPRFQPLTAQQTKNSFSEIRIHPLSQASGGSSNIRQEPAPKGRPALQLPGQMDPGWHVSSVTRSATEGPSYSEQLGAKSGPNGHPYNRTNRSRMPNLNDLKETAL
UniProt P14209: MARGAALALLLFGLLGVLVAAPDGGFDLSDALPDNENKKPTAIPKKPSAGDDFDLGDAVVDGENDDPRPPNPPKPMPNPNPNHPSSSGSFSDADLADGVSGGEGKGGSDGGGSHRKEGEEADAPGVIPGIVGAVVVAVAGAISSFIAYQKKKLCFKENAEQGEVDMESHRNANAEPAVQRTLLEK

Compound in assay [2]: CC1=C2C(=CC=C1)N=C(N(C2=O)C3=CC=CC=C3C)CN4C=NC5=C(N=CN=C54)N
In a few lines:
as §1

Compound in assay [3]: c1ccc([C@@H]2C[C@H]2NC2CCNCC2)cc1
In a few lines:
as §1

Compound in assay [4]: C1=CC=C(C=C1)[C@H](COC2=CC3=C(C=C2)NC(=O)N3)NC(=O)C4=CC=CN(C4=O)CC5=CC(=C(C=C5)F)F
In a few lines:
as §1

Compound in assay [5]: CC1=C(SC2=C1C(=N[C@H](C3=NN=C(N32)C)CC(=O)N)C4=CC=C(C=C4)Cl)C
In a few lines:
as §1

This is one part of the list.

As to CDC42BPG (UniProt Q6DT37), in assay [1], the log2 fold change is inactive: -0.052.

Turning to CEBPZOS (UniProt A8MTT3), the log2 fold change is inactive: -0.03 in assay [2], inactive: -0.006 in assay [1] and inactive: 0.018 in assay [3].

On to CDC42, A0A494C1M1, for which the log2 fold change in assay [3] is inactive: 0.257.

For CDC6 (UniProt Q99741), the log2 fold change in assay [1] is inactive: 0.406.

As for CEP83 (UniProt Q9Y592), the log2 fold change in assay [2] was inactive: -0.165; in assay [3], inactive: 0.03.

As for CEP72 (UniProt Q9P209), the log2 fold change in assay [1] was inactive: 0.077.

CFAP97 (UniProt Q9P2B7): the log2 fold change in assay [2] is inactive: -0.11; in assay [1], inactive: 0.191; in assay [3], inactive: 0.097.

Consider CENPM (UniProt Q9NSP4), for which the log2 fold change in assay [4] was inactive: 0.036; in assay [5] it was inactive: -0.374; in assay [1] it was inactive: -0.069; in assay [3] it was inactive: -0.098.

In the case of CDC42SE1 (UniProt Q9NRR8), the log2 fold change in assay [4] was inactive: -0.229; in assay [5] it was inactive: 0.138; in assay [3], inactive: 0.164.

For the target CDC42EP2 (UniProt O14613), the log2 fold change in assay [2] was inactive: 0.222.

For CFAP47 (UniProt Q6ZTR5), the values for the log2 fold change in assay [2], in assay [1] and in assay [3] were inactive: 0.088, inactive: -0.2 and inactive: -0.148, respectively.

With CD82 (UniProt P27701), the results for the log2 fold change in assay [2] and in assay [3] were inactive: -0.042 and inactive: 0.047, respectively.

Consider CEP170B (UniProt Q9Y4F5), for which the results for the log2 fold change in assay [2], in assay [1] and in assay [3] were inactive: 0.063, inactive: -0.002 and inactive: 0.011, respectively.

Take CDC25A (UniProt P30304): the log2 fold change in assay [1] is inactive: -0.064.

Take CEP63 (UniProt Q96MT8): the log2 fold change in assay [1] was inactive: 0.094; in assay [3] it was inactive: -0.13.

CENPC (UniProt Q03188): the log2 fold change in assay [1] is inactive: 0.247; in assay [3], inactive: -0.1.

As to CENPO (UniProt Q9BU64), the log2 fold change in assay [3] is inactive: 0.09.

With CD9 (UniProt P21926), the log2 fold change in assay [2] was inactive: -0.008; in assay [1], inactive: 0; in assay [3] it was inactive: 0.041.

Turning to CEP295 isoform 3 (UniProt Q9C0D2), the log2 fold change in assay [4] is inactive: -0.154; in assay [5], inactive: 0.045; in assay [3] it was inactive: 0.024.

As to CEP68 (UniProt Q76N32), the log2 fold change in assay [1] was inactive: 0.093.

Turning to CEP85L isoform 4 (UniProt Q5SZL2), the log2 fold change in assay [2] was inactive: 0.267.

With CDC27 (UniProt G5EA36), the log2 fold change in assay [4] is inactive: 0.141; in assay [5], inactive: 0.031; in assay [1], inactive: 0.066; in assay [3], inactive: 0.14.

As to CENPP (UniProt Q6IPU0), the values for the log2 fold change in assay [2], in assay [1] and in assay [3] were inactive: 0.096, inactive: -0.103 and inactive: -0.037, respectively.

For CEP170 isoform 2 (UniProt Q5SW79), the log2 fold change in assay [1] was inactive: 0.103; in assay [3] it was inactive: -0.058.

In the case of CDC37 (UniProt K7EKQ2), the log2 fold change in assay [2] was inactive: -0.023; in assay [1], inactive: 0.018; in assay [3], inactive: 0.208.

For the target CDKN3 (UniProt Q16667), the log2 fold change in assay [4] is inactive: 0.026; in assay [5], inactive: 0.077; in assay [3] it was inactive: -0.054.

On to CDT1 (UniProt Q9H211), for which the log2 fold change in assay [4] was inactive: 0.383; in assay [5] it was inactive: 0.066; in assay [1] it was inactive: 0.031; in assay [3], inactive: -0.01.

As for CDKL5 (UniProt O76039), the log2 fold change is inactive: 0.043 in assay [2], inactive: -0.139 in assay [1] and inactive: -0.132 in assay [3].

For CEP57L1 (UniProt Q8IYX8), the log2 fold change in assay [4] was inactive: -0.078; in assay [5] it was inactive: 0.115; in assay [1] it was inactive: 0.143; in assay [3] it was inactive: 0.099.

As for CFLAR (UniProt O15519), the log2 fold change in assay [2] is inactive: 0.121; in assay [1], inactive: -0.014; in assay [3] it was inactive: 0.167.

On to CD99 (UniProt P14209), for which the log2 fold change in assay [2] was inactive: -0.065; in assay [1] it was inactive: 0.077; in assay [3] it was inactive: -0.025.

In the case of CERS5 (UniProt Q8N5B7), the log2 fold change in assay [4] is inactive: -0.039; in assay [5] it was inactive: -0.05; in assay [1] it was inactive: -0.015; in assay [3] it was inactive: -0.044.
